In PubChem BioAssay AID2685 (National Center for Advancing Translational Sciences (NCATS), 2010):
This is one part of the list. These are further read-outs of the screen, such as a control signal, another cell line or another target. No call is given for them. Compounds called inactive in the main read-out are mostly missing here. Words in brackets tell the shape of the fitted curve; partial curves, single points and poor fits give uncertain potencies.

Assay: qHTS Assay for Lipid Storage Modulators in Drosophila S3 Cells;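 for cell number change: cells counted by Cell Tracker Red CMTPX staining in the red channel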
Details: BODIPY lipid droplet fluorescence, 18-24 h; for cell number change: measured here: cell count max response, cells fed with added oleic acid
In short: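 Laser-scanning cytometry quantifies lipid droplet accumulation (500–530 nm total intensity; droplet/cell object ratio) in oleic acid-fed (400 uM added) Drosophila S3 cells treated with a concentration series. 20 uM Triacsin C defined 100% inhibition.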

[1] = measured here: cell number channel AC50, cells fed with added oleic acid
[2] = measured here: lipid fluorescence (Fed channel) AC50, cells fed with added oleic acid

In the case of O=C1CCCc2nc3c(cc21)C(O)Oc1c-3ccc2ccccc12 (stereo not given), the cell number change is reported as -50.8%, the AC50 [1] is reported as 731 nM [falling, full curve] and the AC50 [2] is reported as 3660 nM [falling, single point].
In the case of CCOc1nc(C)cc(C)c1S(=O)(=O)c1cccc(Cl)c1, the cell number change is reported as -6.34% and the AC50 [2] is reported as 6510 nM [falling, single point].
With CCOC(=O)C(CC)Sc1nc2c(cnn2-c2ccccc2)c(=O)[nH]1 (stereo not given) the cell number change was 34.5%, the AC50 [1] was 1460 nM [rising, full curve] and the AC50 [2] was 580 nM [rising, full curve].
CN(C)CC(=O)c1c(N)n(Cc2ccccc2)c(=O)n(C)c1=O gave a cell number change of -0.683%.
Work on CCCCCCc1cc2cc(/C(N)=N/NC(=O)c3ccncc3)c(=O)oc2cc1O yielded a cell number change of -4.75%.
For Cc1ccc(OC(=O)Cn2c(C(F)(F)F)nc3ccccc32)cc1, the cell number change was -16.8% and the AC50 [1] was 4.61 nM [falling, full curve, poor fit].
For CCOc1ccccc1NC(=O)CSc1nnc(C2CC2)n1CC, the cell number change was 0.833% and the AC50 [2] was 517 nM [rising, single point].
In the case of CCOc1ccc(C2=C(C=C(C#N)C#N)C(c3ccccc3)c3ccccc3O2)cc1 (stereo not given), the cell number change is reported as 3.31% and the AC50 [2] is reported as 4110 nM [rising, full curve].
CCOc1ccc(CC(=O)Nc2ccc(S(=O)(=O)Nc3cc(C)on3)cc2)cc1OCC showed a cell number change of -22.4%.
With Cc1ccc(C)c(Cn2c3ccccc3c3cnn(CC(=O)NCCCN4CCOCC4)c(=O)c32)c1 the cell number change was -0.708% and the AC50 [2] was 6510 nM [rising, single point].
For CCOC(=O)c1c(C)[nH]c(C(=O)OC(C)C(=O)Nc2ccccc2OC)c1C (stereo not given), the cell number change was 46%, the AC50 [1] was 29100 nM [rising, single point] and the AC50 [2] was 580 nM [rising, single point].
In the case of CCOc1cc(C(=O)Nc2ccc(S(=O)(=O)NC3=NCCCCC3)cc2)cc(Br)c1OC, the cell number change is reported as -5.05% and the AC50 [2] is reported as 731 nM [rising, full curve].
For CCCC(CCC)c1nnc(NC(=O)c2ccco2)s1, the cell number change was -3.38% and the AC50 [2] was 23100 nM [falling, single point].
In the case of O=C(Cc1ccccc1)Nc1ccc2oc(-c3cccnc3)nc2c1, the AC50 [1] is reported as 231 nM [rising, full curve] and the AC50 [2] is reported as 206 nM [rising, full curve].
In the case of CCCCOc1ccc(C(=O)NCCCC(=O)N2CCCCC2)cc1, the cell number change is reported as -46.9%, the AC50 [1] is reported as 18400 nM [falling, single point] and the AC50 [2] is reported as 18400 nM [falling, partial curve].
Work on Cc1ccc2nc(NCc3ccco3)c(C=NCc3ccco3)c(=O)n2c1 yielded a cell number change of -23.2%.
For C=CCNC(=O)COC(=O)c1ccc(C)c(NC(=O)c2ccco2)c1, the cell number change was 19.2% and the AC50 [2] was 29100 nM [rising, partial curve, poor fit].
With Fc1ccc(-c2nnc(Cc3ccc(Cl)cc3)o2)cc1 the cell number change was 15.6%, the AC50 [1] was 4.61 nM [rising, full curve, poor fit] and the AC50 [2] was 9200 nM [rising, partial curve].
With CCCCNC(=O)NNC(=O)COc1cccc(C)c1C the cell number change was -22.5% and the AC50 [1] was 5.17 nM [falling, full curve, poor fit].
In the case of O=C(NC(=S)NNC(=O)[C@H]1C[C@@H]1c1ccccc1)c1cccc(F)c1, the cell number change is reported as 34%, the AC50 [1] is reported as 731 nM [rising, full curve] and the AC50 [2] is reported as 231 nM [rising, full curve].
In the case of O=C1C2CC=C(Cl)CC2C(=O)N1CCc1ccccc1 (stereo not given), the AC50 [2] is reported as 411 nM [falling, single point].
In the case of O=C(NCCN1CCOCC1)C(=O)NCC1OCCN1S(=O)(=O)c1ccccc1 (stereo not given), the cell number change is reported as -3.78% and the AC50 [2] is reported as 18400 nM [falling, single point].
Molecule NC(=O)c1nsc(C(=O)N(Cc2ccc(F)cc2)C(C(=O)NCC2CCCO2)c2ccc(F)cc2)c1N (stereo not given) has a cell number change of -8.33%.
With CC(C)Cn1nc(C(=O)Nc2cccc(C(=O)NC3CC3)c2)c2ccccc2c1=O the cell number change was 14.9%.
With CC(NC(=O)C1CCCO1)c1ccccc1 (stereo not given) the cell number change was 14.9% and the AC50 [2] was 2060 nM [falling, partial curve, poor fit].
With O=C(CS(=O)(=O)c1ccc(F)cc1)Nc1nnc(-c2cccs2)o1 the cell number change was -6.74%, the AC50 [1] was 1160 nM [falling, full curve, poor fit] and the AC50 [2] was 6510 nM [falling, single point].
With COc1ccc(NC(=O)CC2C(=O)N(c3ccc(OC)cc3)C(=O)N2C(C)C)cc1 (stereo not given) the cell number change was 103% and the AC50 [1] was 20600 nM [rising, single point].
For Cc1nnc(NC(=O)c2cccc(S(=O)(=O)N3CC(c4ccccc4)CC3=O)c2)s1 (stereo not given), the cell number change was -15.1% and the AC50 [2] was 29100 nM [falling, single point].
For CN(Cc1nc(-c2cccnc2)no1)S(=O)(=O)c1ccccc1, the AC50 [2] was 411 nM [rising, partial curve, poor fit].
For O=c1[nH][nH]c(C(F)(F)F)c1C=NCc1cccs1, the cell number change was -26.8%.
In the case of Cc1ccc(S(=O)(=O)NC(=O)Nc2ccc(Cl)cn2)cc1, the cell number change is reported as -13.6% and the AC50 [2] is reported as 5170 nM [falling, partial curve, poor fit].
In the case of O=C(O)C1C2CCC(C2)C1C(=O)NCCc1ccccc1 (stereo not given), the cell number change is reported as 9.33% and the AC50 [2] is reported as 2060 nM [falling, partial curve, poor fit].
For C#CCOc1c(Cl)cc(/C=N/O)cc1OC, the cell number change was 21.1% and the AC50 [2] was 6510 nM [rising, partial curve, poor fit].
In the case of COc1cccc(CN(C)CC(=O)Nc2cc3oc4ccccc4c3cc2OC)c1, the cell number change is reported as 20.1% and the AC50 [2] is reported as 820 nM [rising, full curve, poor fit].
With CC1CCN(CCCCOc2ccc(Cl)cc2)CC1 the cell number change was -16.8% and the AC50 [2] was 731 nM [falling, full curve].
For Clc1ccc2nc(C3CCN(Cc4nnnn4C4CCCCC4)CC3)[nH]c2c1, the cell number change was -35.6%, the AC50 [1] was 18400 nM [falling, single point] and the AC50 [2] was 23100 nM [falling, single point].
With Cc1ccc(C)c(NC(=S)Nc2ncccc2C)c1 the cell number change was 13.7% and the AC50 [2] was 259 nM [rising, full curve, poor fit].
With Cc1ccc(C2=NN(C(=O)CCC(=O)O)C(c3ccc4c(c3)OCO4)C2)cc1 (stereo not given) the cell number change was 5.96% and the AC50 [2] was 29100 nM [rising, single point].
